Data on 38 targets can be found in the supplement of paper PMC12067093, “Discovery and optimisation of a covalent ligand for TRIM25 and its application to targeted protein ubiquitination” (Chemical Science, 2025).

Some of the results follow.

Compound in the assay: CC1Cc2ccccc2N1C(=O)C1CCCN(C1)C(=O)CCl (mixture of isomers) [TRIM25 ligand 11 (diastereomer mixture)]
Kind of assay: probe-labelled cysteine peptide fold change vs DMSO (competition) (log2 fold change); higher = less target engagement (more negative = stronger competition). The conditions noted are these: THP-1, incubation time: 4 h.
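Further: competitive chemoproteomic profiling in live THP-1 cells with an iodoacetamide desthiobiotin (IA-DTB) probe, comparing probe-labelled peptide intensities in compound-treated cells against DMSO-treated controls.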

On to “EML2_O95834_203_CSNEAVLVATFHPTDPTVLITCGK (UniProt O95834)”, for which the “probe-labelled cysteine peptide fold change” value is, setting by setting: (10 µM) 0.0124; (50 µM) -0.169.

Consider “EPRS_P07814_350_IDMSSNNGCMR (UniProt P07814)”, for which the “probe-labelled cysteine peptide fold change” value by setting is: (10 µM) 0.0529; (50 µM) -0.142.

Turning to “EMC1_Q8N766_587_TTAHFPHPPQCTLLVK (UniProt Q8N766)”, the “probe-labelled cysteine peptide fold change” value runs as follows: (10 µM) -0.19; (50 µM) 0.0174.

Turning to “EPRS_P07814_697_EAPCVLIYIPDGHTK (UniProt P07814)”, the “probe-labelled cysteine peptide fold change” value runs as follows: (10 µM) -0.0281; (50 µM) -0.0379.

Take “EIF3K_Q9UBQ5_85_ALTNLPHTDFTLCK (UniProt Q9UBQ5)”: the “probe-labelled cysteine peptide fold change” value came to 0.0809 (10 µM) and 0.217 (50 µM).

Take “EIF3I_Q13347_120_QMGYQCFVSFFDLRDPSQIDNNEPYMK (UniProt Q13347)”: the “probe-labelled cysteine peptide fold change” value is, setting by setting: (10 µM) -0.281; (50 µM) -0.122.

Take “EIF3D_O15371_375_CEHDGVMTGANGEVSFINIK (UniProt O15371)”: the “probe-labelled cysteine peptide fold change” value reads like this: (10 µM) -0.0676; (50 µM) -0.178.

Take “EPRS_P07814_1448+1453_IVQIPFCGEIDCEDWIK (UniProt P07814)”: the “probe-labelled cysteine peptide fold change” value reads like this: (10 µM) 0.0922; (50 µM) -0.0905.

For “ELANE_P08246_198_QAGVCFGDSGSPLVCNGLIHGIASFVR (UniProt P08246)”, the “probe-labelled cysteine peptide fold change” value came out at 0.0896 (10 µM) and 0.126 (50 µM).

In the case of “ENAH_Q8N8S7_7_SEQSICQAR (UniProt Q8N8S7)”, the “probe-labelled cysteine peptide fold change” value is, setting by setting: (10 µM) 0.28; (50 µM) 0.538.

On to “EIF4G3_O43432_301_CELSSPR (UniProt O43432)”, for which the “probe-labelled cysteine peptide fold change” value reads like this: (10 µM) -0.0526; (50 µM) -0.2.

As for “ELMO1_Q92556_726_EPSNYDFVYDCN (UniProt Q92556)”, the “probe-labelled cysteine peptide fold change” value (10 µM) is -0.0695 and the “probe-labelled cysteine peptide fold change” value (50 µM) was -0.194.

As for “EML4_Q9HC35_368_GVGCLDFSK (UniProt Q9HC35)”, the “probe-labelled cysteine peptide fold change” value (10 µM) is 0.182 and the “probe-labelled cysteine peptide fold change” value (50 µM) worked out at 0.201.

In the case of “EMG1_Q92979_230_MVSISNYPLSAALTCAK (UniProt Q92979)”, the “probe-labelled cysteine peptide fold change” value (10 µM) is 0.154 and the “probe-labelled cysteine peptide fold change” value (50 µM) is -0.113.

With “ENOPH1_Q9UHY7_52_EYLQTHWEEEECQQDVSLLR (UniProt Q9UHY7)”, the “probe-labelled cysteine peptide fold change” value is 0.193 (10 µM) and -0.0562 (50 µM).

Take “ENOSF1_Q7L5Y1_67_GTEVVVCAVNALAHHVLNK (UniProt Q7L5Y1)”: the “probe-labelled cysteine peptide fold change” value was -0.0438 (10 µM) and 0.0621 (50 µM).

In the case of “EIF3I_Q13347_76_HVLTGSADNSCR (UniProt Q13347)”, the “probe-labelled cysteine peptide fold change” value is -0.0321 (10 µM) and -0.0364 (50 µM).

On to “ENTPD1_P49961_255_DYNVYTHSFLCYGK (UniProt P49961)”, for which the “probe-labelled cysteine peptide fold change” value amounted to 0.0736 (10 µM) and 0.271 (50 µM).

Turning to “ENG_P17813_207_GCHLEGVAGHK (UniProt P17813)”, the “probe-labelled cysteine peptide fold change” value worked out at 0.011 (10 µM) and 0.173 (50 µM).

For “EP300_Q09472_1176+1177_KLEFSPQTLCCYGK (UniProt Q09472)”, the “probe-labelled cysteine peptide fold change” value was -0.118 (10 µM) and -0.147 (50 µM).

As for “EPC2_Q52LR7_626_AQGSSTSDCMSK (UniProt Q52LR7)”, the “probe-labelled cysteine peptide fold change” value was -0.0677 (10 µM) and -0.224 (50 µM).

Take “ELOB_Q15370_89_ADDTFEALCIEPFSSPPELPDVMK (UniProt Q15370)”: the “probe-labelled cysteine peptide fold change” value was 0.123 (10 µM) and -0.171 (50 µM).

Take “EPC1_Q9H2F5_135_KMDICPLQFEEMIDRLEK (UniProt Q9H2F5)”: the “probe-labelled cysteine peptide fold change” value reads like this: (10 µM) -0.115; (50 µM) -0.0254.

As to “EML2_O95834_301_ITQAVLGAHDGGVFGLCALR (UniProt O95834)”, the “probe-labelled cysteine peptide fold change” value by setting is: (10 µM) -0.0268; (50 µM) -0.0106.

“EML2_O95834_604+605_VHLFSYPCCQPR (UniProt O95834)”: the “probe-labelled cysteine peptide fold change” value runs as follows: (10 µM) -0.129; (50 µM) -0.0141.

In the case of “EPRS_P07814_123_TYLVGNSLSLADLCVWATLK (UniProt P07814)”, the “probe-labelled cysteine peptide fold change” value was -0.0118 (10 µM) and 0.0163 (50 µM).

As to “ELAC2_Q9BQ52_374_FGPDTQHLVLNENCASVHNLR (UniProt Q9BQ52)”, the “probe-labelled cysteine peptide fold change” value by setting is: (10 µM) 0.292; (50 µM) -0.0344.

For the target “EMB_Q6PCB8_142_QMGSYSCFFR (UniProt Q6PCB8)”, the “probe-labelled cysteine peptide fold change” value by setting is: (10 µM) 0.0371; (50 µM) 0.0881.

As to “ELP2_Q6IA86_572+575_LYGHGYEIFCVTCNSSK (UniProt Q6IA86)”, the “probe-labelled cysteine peptide fold change” value reads like this: (10 µM) 0.0985; (50 µM) 0.132.

As for “ELAC2_Q9BQ52_51_RGPSGCSGGPNTVYLQVVAAGSR (UniProt Q9BQ52)”, the “probe-labelled cysteine peptide fold change” value is 0.0651 (10 µM) and -0.0115 (50 µM).

As for “EPHX2_P34913_309_GYGESSAPPEIEEYCMEVLCK (UniProt P34913)”, the “probe-labelled cysteine peptide fold change” value is, setting by setting: (10 µM) 0.335; (50 µM) -0.196.

Regarding “EP300_Q09472_1250_RKNDTLDPELFVECTECGR (UniProt Q09472)”, the “probe-labelled cysteine peptide fold change” value is 0.0384 (10 µM) and 0.148 (50 µM).

As for “EP300_Q09472_1621_LIAGPAANSLPPIVDPDPLIPCDLMDGR (UniProt Q09472)”, the “probe-labelled cysteine peptide fold change” value was 0.519 (10 µM) and -0.508 (50 µM).

Turning to “ELP2_Q6IA86_810_EAEGAEWLHFASCGEDHTVK (UniProt Q6IA86)”, the “probe-labelled cysteine peptide fold change” value by setting is: (10 µM) 0.0967; (50 µM) 0.0179.

In the case of “EIF3F_O00303_134_HSVEVTNCFSVPHNESEDEVAVDMEFAK (UniProt O00303)”, the “probe-labelled cysteine peptide fold change” value (10 µM) was 0.0611 and the “probe-labelled cysteine peptide fold change” value (50 µM) is -0.0526.

For “EIF4E_P06730_170_IAIWTTECENR (UniProt P06730)”, the “probe-labelled cysteine peptide fold change” value (10 µM) came to 0.205 and the “probe-labelled cysteine peptide fold change” value (50 µM) amounted to 0.142.

As for “ELMO1_Q92556_663_HEYCIWTDGLNALLGK (UniProt Q92556)”, the “probe-labelled cysteine peptide fold change” value (10 µM) stood at 0.47 and the “probe-labelled cysteine peptide fold change” value (50 µM) is 0.298.

Consider “EML3_Q32P44_615_FLTCGHDR (UniProt Q32P44)”, for which the “probe-labelled cysteine peptide fold change” value (10 µM) is -0.0229 and the “probe-labelled cysteine peptide fold change” value (50 µM) was -0.0267.
